In PMC6954894:
These are yes or no findings as the source states them, for the method shown. In cells and extracts the contact can be indirect. Some results given as binding are weak or reduced against the parent protein; the word gives no strength.

Chains of the proteins cited; added tags and fusions are not shown. Residues count along the entry.
UniProt Q9QUK6, residues 26-835: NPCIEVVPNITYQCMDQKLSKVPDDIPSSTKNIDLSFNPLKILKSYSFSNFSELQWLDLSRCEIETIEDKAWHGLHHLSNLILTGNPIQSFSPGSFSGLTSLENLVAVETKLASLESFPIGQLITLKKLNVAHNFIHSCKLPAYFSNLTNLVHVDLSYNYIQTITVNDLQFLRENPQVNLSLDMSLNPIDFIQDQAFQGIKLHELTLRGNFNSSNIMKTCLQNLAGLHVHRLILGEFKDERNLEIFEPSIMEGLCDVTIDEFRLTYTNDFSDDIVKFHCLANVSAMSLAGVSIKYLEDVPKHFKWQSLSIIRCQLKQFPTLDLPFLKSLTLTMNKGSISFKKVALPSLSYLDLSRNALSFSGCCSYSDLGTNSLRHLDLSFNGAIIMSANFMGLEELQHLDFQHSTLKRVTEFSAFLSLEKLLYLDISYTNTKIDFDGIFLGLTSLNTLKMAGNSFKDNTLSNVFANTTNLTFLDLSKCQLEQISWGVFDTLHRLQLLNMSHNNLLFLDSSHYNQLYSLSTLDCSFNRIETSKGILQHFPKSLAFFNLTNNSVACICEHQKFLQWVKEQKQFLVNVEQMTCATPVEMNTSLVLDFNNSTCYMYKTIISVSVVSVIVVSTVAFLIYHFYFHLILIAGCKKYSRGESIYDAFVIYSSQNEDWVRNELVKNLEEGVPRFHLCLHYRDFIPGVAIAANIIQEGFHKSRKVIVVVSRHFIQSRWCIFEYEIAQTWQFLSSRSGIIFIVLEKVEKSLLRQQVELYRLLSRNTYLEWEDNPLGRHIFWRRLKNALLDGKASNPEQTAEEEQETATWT
UniProt Q08509: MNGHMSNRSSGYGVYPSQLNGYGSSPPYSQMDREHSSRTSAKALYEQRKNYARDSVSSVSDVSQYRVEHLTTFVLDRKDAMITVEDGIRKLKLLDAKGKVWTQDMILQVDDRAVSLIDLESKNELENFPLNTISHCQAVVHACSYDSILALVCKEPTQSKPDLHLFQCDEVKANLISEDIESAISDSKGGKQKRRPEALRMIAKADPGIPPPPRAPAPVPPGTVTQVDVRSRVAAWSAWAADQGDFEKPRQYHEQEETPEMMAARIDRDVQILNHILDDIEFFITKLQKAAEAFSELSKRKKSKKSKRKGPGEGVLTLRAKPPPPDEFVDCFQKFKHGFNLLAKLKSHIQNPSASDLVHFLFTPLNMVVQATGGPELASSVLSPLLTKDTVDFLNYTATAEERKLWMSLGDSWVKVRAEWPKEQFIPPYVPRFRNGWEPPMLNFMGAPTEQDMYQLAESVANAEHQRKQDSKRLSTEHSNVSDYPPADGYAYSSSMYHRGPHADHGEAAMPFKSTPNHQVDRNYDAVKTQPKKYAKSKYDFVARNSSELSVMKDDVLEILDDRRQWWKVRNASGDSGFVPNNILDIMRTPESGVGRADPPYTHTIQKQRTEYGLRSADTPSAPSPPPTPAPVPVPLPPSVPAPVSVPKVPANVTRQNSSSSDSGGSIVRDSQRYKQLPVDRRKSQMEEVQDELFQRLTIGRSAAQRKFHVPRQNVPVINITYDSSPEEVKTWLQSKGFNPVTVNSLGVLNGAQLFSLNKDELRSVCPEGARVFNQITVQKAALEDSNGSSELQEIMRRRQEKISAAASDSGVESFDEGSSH
UniProt Q60631: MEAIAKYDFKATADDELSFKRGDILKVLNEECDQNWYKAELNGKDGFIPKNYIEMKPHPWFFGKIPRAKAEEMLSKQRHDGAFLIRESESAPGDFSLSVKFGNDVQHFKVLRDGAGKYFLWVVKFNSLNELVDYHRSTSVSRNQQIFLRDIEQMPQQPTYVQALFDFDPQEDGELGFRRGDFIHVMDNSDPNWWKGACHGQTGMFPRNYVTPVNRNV

Key:
[1] = molecular target: Toll-like receptor 4 (mouse (endogenous in BMDM)) (UniProt Q9QUK6); assay: co-IP; endogenous proteins in BMDM; control, LPS (1 μg/mL) for 30 min, or LPS with PD168393 pretreatment for 30 min
[2] = molecular target: Toll-like receptor 4 (mouse (endogenous in BMDM)) (UniProt Q9QUK6); assay: co-IP; endogenous proteins, 6 h after LPS treatment

Substance	binding [1]	binding [2]
EGFR (from UniProt Q01279 25-1210) (receptor)	no binding	
Epidermal growth factor receptor pathway substrate 8 (from UniProt Q08509 1-821)		binds
growth-factor receptor-bound protein 2 (from UniProt Q60631 1-217)		binds
